Experimental data as given in publication PMC13002332.
Results are given in words; binding and its absence hold for the method and conditions named. Binding seen in cells or lysates may run through a third protein. These calls come from enrichment with a bait or labelling near it, and not all partners need be listed. Tags and fused reporters may be left off the sequences shown.

T1: Cilia- and flagella-associated protein 77 (CFAP77), endogenous in mouse testis (mouse (endogenous in testis))
T1 sequence: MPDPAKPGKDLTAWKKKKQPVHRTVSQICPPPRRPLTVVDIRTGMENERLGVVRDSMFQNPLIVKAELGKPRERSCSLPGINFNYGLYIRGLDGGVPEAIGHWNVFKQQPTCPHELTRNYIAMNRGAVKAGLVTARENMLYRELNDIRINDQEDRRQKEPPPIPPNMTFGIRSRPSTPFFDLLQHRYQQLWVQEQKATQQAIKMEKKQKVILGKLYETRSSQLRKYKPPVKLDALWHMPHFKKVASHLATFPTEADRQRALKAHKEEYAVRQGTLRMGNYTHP


Biological target: T1, Cilia- and flagella-associated protein 77 (CFAP77), endogenous in mouse testis (mouse (endogenous in testis))
Assay: affinity purification with mass spectrometry; immunoprecipitation with an anti-CFAP77 antibody on Dynabeads from mouse testis lysates, LC-MS/MS; Cfap77 KO testes with the same beads and antibody as negative control

| binding | Binder |
| --- | --- |
| binds | SPMIP8, endogenous in mouse testis (protein, UniProt Q6IMH0 1-216) MAQIIDLVPWDECSAHLYASPAVLLPLERVRHPLAGVKHQLYHPALPSLRRMDMDTVKGCLSDEHCQSSTYFSKDDFNKAHFTLLGVPNKPLQCLDFTATGQKLCHKYRGGKMIPIAPGINRVDWPCFTRAIEDWSKFVSRSEEFKLPCANKRVEGFSGYAVRYLKPEVTQNWRYCLNQNPSLDRYGQKPLPFDSLNAFRRFGSHYSRINYLTPWH |
| binds | LGALS8, endogenous in mouse testis (protein, UniProt Q9JL15 1-316) MLSLNNLQNIIYNPIIPYVGTITEQLKPGSLIVIRGHVPKDSERFQVDFQLGNSLKPRADVAFHFNPRFKRSSCIVCNTLTQEKWGWEEITYDMPFRKEKSFEIVFMVLKNKFQVAVNGRHVLLYAHRISPEQIDTVGIYGKVNIHSIGFRFSSDLQSMETSALGLTQINRENIQKPGKLQLSLPFEARLNASMGPGRTVVIKGEVNTNARSFNVDLVAGKTRDIALHLNPRLNVKAFVRNSFLQDAWGEEERNITCFPFSSGMYFEMIIYCDVREFKVAINGVHSLEYKHRFKDLSSIDTLSVDGDIRLLDVRSW |
